Test results published in paper PMC12165065.

Protein sequences, listed by entry. Tags and fused reporters are not part of them. Lines headed by an entry give the natural chain unless they say otherwise; changes in a name come on top.
UniProt Q99873: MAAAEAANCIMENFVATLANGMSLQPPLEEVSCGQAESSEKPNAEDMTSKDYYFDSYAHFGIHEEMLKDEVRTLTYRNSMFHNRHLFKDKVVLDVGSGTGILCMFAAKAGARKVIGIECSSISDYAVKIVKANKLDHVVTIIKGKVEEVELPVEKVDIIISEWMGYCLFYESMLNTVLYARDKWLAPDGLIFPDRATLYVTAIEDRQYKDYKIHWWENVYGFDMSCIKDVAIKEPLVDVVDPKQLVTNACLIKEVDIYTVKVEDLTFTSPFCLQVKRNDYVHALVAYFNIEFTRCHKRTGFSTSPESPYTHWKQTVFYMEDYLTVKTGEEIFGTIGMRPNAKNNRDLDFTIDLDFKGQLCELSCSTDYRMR
UniProt Q92922: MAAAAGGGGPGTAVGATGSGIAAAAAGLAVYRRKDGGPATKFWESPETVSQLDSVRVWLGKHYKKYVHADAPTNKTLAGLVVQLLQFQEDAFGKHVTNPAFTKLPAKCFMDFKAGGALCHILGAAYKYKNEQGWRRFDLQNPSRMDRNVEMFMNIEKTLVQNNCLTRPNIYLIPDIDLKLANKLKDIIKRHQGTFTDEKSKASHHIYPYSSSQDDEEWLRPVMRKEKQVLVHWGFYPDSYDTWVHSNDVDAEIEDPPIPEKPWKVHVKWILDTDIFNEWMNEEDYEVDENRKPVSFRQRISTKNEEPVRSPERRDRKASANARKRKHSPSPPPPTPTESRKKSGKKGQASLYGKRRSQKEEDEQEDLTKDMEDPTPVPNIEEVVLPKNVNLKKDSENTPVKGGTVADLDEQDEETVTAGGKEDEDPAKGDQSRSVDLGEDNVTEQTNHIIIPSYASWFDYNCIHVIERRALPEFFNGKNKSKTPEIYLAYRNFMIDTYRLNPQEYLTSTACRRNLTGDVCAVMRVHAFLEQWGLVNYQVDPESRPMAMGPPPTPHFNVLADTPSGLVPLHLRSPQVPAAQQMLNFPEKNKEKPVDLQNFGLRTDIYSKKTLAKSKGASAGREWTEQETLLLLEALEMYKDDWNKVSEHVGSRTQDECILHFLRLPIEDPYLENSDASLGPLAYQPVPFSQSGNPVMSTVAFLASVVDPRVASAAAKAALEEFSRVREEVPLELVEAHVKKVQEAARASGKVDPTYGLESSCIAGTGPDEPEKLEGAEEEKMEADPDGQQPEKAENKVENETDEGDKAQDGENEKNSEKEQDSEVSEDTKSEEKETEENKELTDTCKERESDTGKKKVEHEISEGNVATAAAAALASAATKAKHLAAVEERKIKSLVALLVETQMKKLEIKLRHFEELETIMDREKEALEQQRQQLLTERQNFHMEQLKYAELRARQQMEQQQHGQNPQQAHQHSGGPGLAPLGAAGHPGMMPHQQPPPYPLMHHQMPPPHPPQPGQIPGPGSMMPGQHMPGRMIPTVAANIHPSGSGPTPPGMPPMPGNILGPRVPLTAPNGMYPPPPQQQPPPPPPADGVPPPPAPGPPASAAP

Biological target: GST-PRMT1 (human) (UniProt Q99873)
Test: pull-down; GST-PRMT1 (GST as negative control) on glutathione-agarose beads, incubated with lysates of HEK293T cells transfected with HA-SMARCC1, 4 °C for 3 h; washed five times with NETN buffer; immunoblot; only the target purified

binding: binds
Substance: HA-tagged full-length SMARCC1 (amino acids 1–1105) (from UniProt Q92922 1-1105)

Results are given in words; binding and its absence hold for the method and conditions named. Binding seen in cells or lysates may run through a third protein. Binding calls can cover weak binding; strength is not graded here.
